PubChem BioAssay AID1259308 – NCATS | 2017
Here is one part, drawn at random, of about 59,000 reagents tested. About 1,510 of all reagents (2.6%) were called active. 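Calls use total luciferase alone and ignore viability, so some active siRNAs may act by altering cell number.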 Entries without a mark were called inactive. Further read-outs or replicates are left out here. No sequences are given here.

- Assay: 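Genes whose loss raises luciferase production in HEK293 cells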 (primary screen)
- System: human HEK293 embryonic kidney cells stably expressing firefly luciferase (HEK-CMV-Luc2-Hygro)
- Knock-down reagent: single siRNA against human genes, 0.8 pmol siRNA per well
- Duration: 72 h
- Detection: 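Luciferase light (ONE-Glo) measured on one replicate plate set and viability (CellTiter-Glo) on the other, scaled to a negative control siRNA, with robust z-scores and luciferase per cell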
- Reading the numbers: total luciferase, z-score: higher = more reporter protein produced
- Active means: 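Active when the median/MAD z-score for overall luciferase is greater than 3; a gene was taken forward for validation with new siRNAs if at least two of its three siRNAs passed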
- Meaning of the calls: active = raised luciferase; inactive = no rise

target,PubChem SID,"total luciferase, z-score"
"MAGOH (mago homolog, exon junction complex subunit)",SID160733367,0.384
"MAGOH (mago homolog, exon junction complex subunit)",SID160776922,2.02
"MAGOH (mago homolog, exon junction complex subunit)",SID160776923,0.425
GTF3C5 (general transcription factor IIIC subunit 5),SID160721953,0.0956
GTF3C5 (general transcription factor IIIC subunit 5),SID160721954,-0.928
GTF3C5 (general transcription factor IIIC subunit 5),SID160721955,0.876
SLC17A8,SID160730884,-1.72
SLC17A8,SID160762007,-0.831
SLC17A8,SID160762008,-0.261
POU3F2 (POU class 3 homeobox 2),SID160714679,1.01
POU3F2 (POU class 3 homeobox 2),SID160714680,-0.255
POU3F2 (POU class 3 homeobox 2),SID160731454,-0.749
FGF16 (fibroblast growth factor 16),SID160720899,-0.144
FGF16 (fibroblast growth factor 16),SID160720900,3.01 (active)
FGF16 (fibroblast growth factor 16),SID160720901,-0.219
LETMD1 (LETM1 domain containing 1),SID160737156,1.02
LETMD1 (LETM1 domain containing 1),SID160737157,0.264
LETMD1 (LETM1 domain containing 1),SID160737159,-1.83
STRADBP1 (STE20-related kinase adaptor beta pseudogene 1),SID160766219,-1.59
STRADBP1 (STE20-related kinase adaptor beta pseudogene 1),SID160766222,-0.462
STRADBP1 (STE20-related kinase adaptor beta pseudogene 1),SID160766223,0.251
OR6M1 (olfactory receptor family 6 subfamily M member 1),SID160766471,-0.705
OR6M1 (olfactory receptor family 6 subfamily M member 1),SID160766472,1.2
OR6M1 (olfactory receptor family 6 subfamily M member 1),SID160766473,0.691
"BAX (BCL2 associated X, apoptosis regulator)",SID160723052,0.322
"BAX (BCL2 associated X, apoptosis regulator)",SID160723063,1.04
"BAX (BCL2 associated X, apoptosis regulator)",SID160731627,0.184
YAE1 (YAE1 maturation factor of ABCE1),SID160745487,-0.00425
YAE1 (YAE1 maturation factor of ABCE1),SID160745488,-0.429
YAE1 (YAE1 maturation factor of ABCE1),SID160745489,-0.899
GJB3 (gap junction protein beta 3),SID160771078,0.74
GJB3 (gap junction protein beta 3),SID160771086,1.32
GJB3 (gap junction protein beta 3),SID160771095,-0.754
ELN (elastin),SID160723744,-0.41
ELN (elastin),SID160723745,-0.237
ELN (elastin),SID160759999,-0.0454
"TSKU (tsukushi, small leucine rich proteoglycan)",SID160737397,-0.772
"TSKU (tsukushi, small leucine rich proteoglycan)",SID160737398,3.45 (active)
"TSKU (tsukushi, small leucine rich proteoglycan)",SID160737399,1.71
PLA2G12A (phospholipase A2 group XIIA),SID160731970,-1.38
PLA2G12A (phospholipase A2 group XIIA),SID160750857,0.295
PLA2G12A (phospholipase A2 group XIIA),SID160750858,1.57
TTC14 (tetratricopeptide repeat domain 14),SID160759129,-0.238
TTC14 (tetratricopeptide repeat domain 14),SID160759130,-0.143
TTC14 (tetratricopeptide repeat domain 14),SID160759131,0.692
C1QL1 (complement C1q like 1),SID160729416,-0.248
C1QL1 (complement C1q like 1),SID160729417,0.133
C1QL1 (complement C1q like 1),SID160729418,3.46 (active)
ZNF275 (zinc finger protein 275),SID160729310,0.834
ZNF275 (zinc finger protein 275),SID160729311,0.249
ZNF275 (zinc finger protein 275),SID160729312,0.507
HES5 (hes family bHLH transcription factor 5),SID160731178,1.17
HES5 (hes family bHLH transcription factor 5),SID160765919,-0.382
HES5 (hes family bHLH transcription factor 5),SID160765920,0.548
LCMT1 (leucine carboxyl methyltransferase 1),SID160731374,-0.427
LCMT1 (leucine carboxyl methyltransferase 1),SID160740833,0.0879
LCMT1 (leucine carboxyl methyltransferase 1),SID160740834,0.921
